{"source": "patent US5496831", "key": {"[1]": {"tested_on": "E2F complex (refed-induced, liver nuclear extract) (Rattus norvegicus)", "test": "competition with a labelled probe", "conditions": "protein in an extract, protein details: fasted-refed rat liver nuclear extract"}, "[2]": {"tested_on": "IRP-A complex (insulin-responsive, liver nuclear extract) (Rattus norvegicus)", "test": "competition with a labelled probe", "conditions": "protein in an extract"}, "[3]": {"tested_on": "E2F complex (refed-induced, liver nuclear extract) (Rattus norvegicus)", "test": "EMSA", "conditions": "refed-induced complex of similar mobility to IRP-A on labelled E2 DNA; protein in an extract; protein details: fasted-refed rat liver nuclear extract; label: 32P when used as probe"}}, "note": "For at least one entry, the source does not settle the construct or the ends of the probe. Results from cells or extracts need not show a direct contact. For part of these data: No signal at the amounts used counts as a negative."}
{"sequence": "ATTTAAGTTTCGATCCCTTTCTCAA (double strand) [E2 mutant (GC to TA)]", "values": [{"measurement": "binding result", "setting": "[1]; mutant E2 does not compete, variant of E2 (cognate E2F site) wild-type", "value": "no binding"}, {"measurement": "binding result", "setting": "[2]; mutant E2 fails to compete, variant of E2 (cognate E2F site) wild-type", "value": "no binding"}]}
{"sequence": "ATTTAAGTTTCGCGCCCTTTCTCAA (double strand) [E2 (cognate E2F site) wild-type]", "values": [{"measurement": "binding result", "setting": "[3]", "value": "binds"}, {"measurement": "binding result", "setting": "[2]; completely eliminates IRP-A binding to IRE-A, label: 32P when used as probe", "value": "binds"}]}
{"sequence": "TAGTTTTCGCGCTTAAATTTGA (double strand) [DRTF wild-type (E2A promoter site)]", "values": [{"measurement": "binding result", "setting": "[1]; DRTF site competes complex from labelled E2", "value": "binds"}, {"measurement": "binding result", "setting": "[2]; DRTF site completely competes IRP-A from IRE-A", "value": "binds"}]}
